These results are taken from PubChem BioAssay AID2685 (National Center for Advancing Translational Sciences (NCATS), 2010).

The list shows a part of the results. Shown are side measurements of this screen, not its main read-out; they come without a call. The list favours compounds with an active or inconclusive main result. The note in brackets gives the kind of curve behind each potency; many fits are weak.

This assay in a line: qHTS Assay for Lipid Storage Modulators in Drosophila S3 Cells.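 On cell number change: cells counted by Cell Tracker Red CMTPX staining in the red channel.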 Conditions: BODIPY lipid droplet fluorescence, 18-24 h; for cell number change: measured here: cell count max response, cells fed with added oleic acid. An outline of the steps:
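Laser-scanning cytometry quantifies lipid droplet accumulation (500–530 nm total intensity; droplet/cell object ratio) in oleic acid-fed (400 uM added) Drosophila S3 cells treated with a concentration series. 20 uM Triacsin C defined 100% inhibition.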
For orientation: Quantitative high-throughput screening tests each substance at several concentrations.

Where [1] appears, read: measured here: cell number channel AC50, cells fed with added oleic acid.
[2] abbreviates: measured here: lipid fluorescence (Fed channel) AC50, cells fed with added oleic acid.

Turning to `Cc1cc(C)cc(NC(=O)c2ccc(NC(=O)c3ccco3)cc2)c1`, the cell number change was -53.2%. In addition, the AC50 under setting [1] is 11.6 µM [falling, partial curve]. In addition, the AC50 under setting [2] was 18.4 µM [falling, single point].

As to `Cc1ccc(S(=O)(=O)Nc2nnc(C(C)(C)C)s2)cc1`, the cell number change amounted to 28.8%. Further, the AC50 under setting [2] is 23.1 µM [rising, single point].

For the molecule `CCCC(=O)c1c[nH]c(C(=O)NCCc2ccccn2)c1`, the cell number change is -17.1%. Moreover, under setting [2], the AC50 is 5.17 µM [falling, single point].

Take `Cc1ccccc1Cn1c(C)cc(C)c(C#N)c1=O`: the cell number change is -35.7%. Besides, under setting [1], the AC50 is 0.92 µM [falling, full curve]. For the same molecule, the AC50 under setting [2] is 0.58 µM [falling, full curve].

As to `COc1ccc(CNC(=O)CSc2nnc(C3CC3)n2C2CC2)cc1`, the cell number change turned out to be 0.908%.

For `COc1ccccc1OCC(=O)Nc1cccc(N(C)S(C)(=O)=O)c1`, the cell number change worked out at 28.7%. Under setting [2], the AC50 was 3.66 µM [rising, partial curve, poor fit].

With `C1=C(CCNc2ncnc3c2cnn3-c2ccccc2)CCCC1`, the cell number change is -47.3%. Moreover, the half-maximal activity concentration (AC50) under setting [1] is 25.9 µM [falling, single point].

With `CC(=O)c1cccc(NC(=O)C2C3C=CC(C4CC34)C2C(=O)O)c1` (stereo not drawn), the cell number change was 24%. Besides, the AC50 under setting [2] was 3.26 µM [falling, single point].

Regarding `COc1ccc(C=O)c2[nH]c3c(Cl)ncnc3c12`, the cell number change was -5.56%.

Turning to `CC(=O)CCc1c(C)nc2ccc(C)cc2c1Cl`, the cell number change is 39.1%. Under setting [1], the AC50 was 3.66 µM [rising, full curve, poor fit]. Besides, under setting [2], the AC50 is 0.116 µM [rising, full curve, poor fit].

With `Cn1c(=O)c(=O)n(C)c2cc(S(=O)(=O)NCCN3CCN(c4ccccc4F)CC3)ccc21`, the cell number change is 2.36%. The AC50 under setting [1] is 0.82 µM [rising, single point].

With `CCOC(=O)CN1CC23C=CC(O2)C(C(=O)O)C3C1=O` (stereo not drawn), the cell number change was determined as 7.86%. The half-maximal activity concentration (AC50) under setting [2] is 1.46 µM [falling, partial curve, poor fit].

Take `CCN(CC)c1ccc(/C=N/N2C(=O)c3ccccc3C2=O)cc1`: the cell number change was found to be 14.8%. In addition, the AC50 under setting [2] was 1.3 µM [falling, full curve].

With `CC(=O)Oc1ccc2nc(CN3C(=O)c4ccc([N+](=O)[O-])cc4C3=O)oc(=O)c2c1`, the cell number change stood at 15.4%. In addition, the AC50 under setting [2] was 2.31 µM [falling, single point].

As for `CCOC(=O)c1ccccc1NC(=O)CN(c1ccccc1OCC)S(C)(=O)=O`, the cell number change came out at 0.129%. Besides, the AC50 under setting [2] is 1.84 µM [rising, full curve].

Turning to `CCN(C(=O)COC(=O)c1cc(S(=O)(=O)N(C)C)ccc1Cl)C1CCS(=O)(=O)C1` (stereo not drawn), the cell number change came to 1.76%. Further, the AC50 under setting [2] was 29.1 µM [rising, single point].

`S=C(Nc1ccc(Br)cc1)NC1CCN(Cc2ccccc2)CC1`: the cell number change was -37.6%. For the same molecule, the AC50 under setting [1] is 25.1 µM [falling, single point].

Regarding `CCc1ccc(S(=O)(=O)Nc2ccc(Cl)cn2)cc1`, the cell number change amounted to 33.3%.

As for `O=C(Cn1cc(C(F)(F)F)cc(Cl)c1=O)NCc1ccccc1`, the cell number change turned out to be 27%. The AC50 under setting [1] was 0.00651 µM [rising, full curve, poor fit]. For the same molecule, under setting [2], the concentration at half-maximal activity (AC50) is 0.58 µM [rising, single point].

For `CC1CCCCN1CCCNc1ccc(C(CC(N)=O)NC(=O)Cc2ccc(Cl)cc2)cc1[N+](=O)[O-]` (stereo not drawn), the cell number change turned out to be 17.1%. Moreover, the AC50 under setting [1] is 4.11 µM [rising, partial curve, poor fit]. Further, the AC50 under setting [2] is 6.51 µM [rising, single point].

For the molecule `Cc1cc(=O)[nH]c2c(C)cc(S(=O)(=O)Nc3ccc(O)cc3)cc12`, the cell number change was -8.14%. Under setting [2], the AC50 is 6.51 µM [rising, single point].

Consider `CN(Cc1ccccc1)c1nc(N)c([N+](=O)[O-])c(Nc2cccc(F)c2)n1`, for which the AC50 is 2.59 µM [rising, partial curve] under setting [1] and 18.4 µM [rising, partial curve] under setting [2].

As to `COc1ccc(NC(=O)CNC(=O)Cn2cnc3sc(C)c(C)c3c2=O)cc1OC`, the cell number change was -9.44%. The concentration at half-maximal activity (AC50) under setting [2] was 6.51 µM [rising, single point].

Take `CCN(CC)S(=O)(=O)c1ccc(N2CCCC2)c(NC(=O)CC(C)(C)C)c1`: the cell number change stood at 13.8%. The AC50 under setting [1] was 2.06 µM [rising, partial curve, poor fit].

In the case of `COc1ccc(OC)c(/C=N/NC(=O)c2cc3c(OC)c(OC)ccc3[nH]2)c1`, the cell number change is -33.6%. The AC50 under setting [2] is 2.31 µM [rising, partial curve].

In the case of `COc1ccc(CC(=O)OCc2nnc(-c3ccccc3)o2)cc1`, the cell number change was 3.95%.

For `COc1ccc(/C=C2\CCc3ccccc3C2=O)cc1Cn1cccn1`, the cell number change stood at 123%. The half-maximal activity concentration (AC50) under setting [1] was 9.2 µM [rising, partial curve]. For the same molecule, the AC50 under setting [2] is 18.4 µM [rising, partial curve].

Regarding `CC(Oc1ccccc1)C(=O)Nc1nnc(S(=O)(=O)Nc2ccccc2)s1` (stereo not drawn), the cell number change came out at 1.8%.

Regarding `CCOc1ccc(Br)cc1/C=N/NC(=O)c1ccncc1`, the cell number change was -65.1%. Also, the AC50 under setting [1] is 32.6 µM [falling, single point].

Take `O=C(Nc1ccc(Cc2ccncc2)cc1)c1ccc(S(=O)(=O)N2CCOCC2)cc1`: the cell number change amounted to 2.23%.

`Clc1ccc(-c2nc3ncccn3c2Cl)cc1`: the cell number change worked out at 35.7%. Further, under setting [1], the AC50 is 7.31 µM [rising, partial curve].

Turning to `CCn1nc(C(=O)OC2CCOC2=O)c2ccccc2c1=O` (stereo not drawn), the cell number change was -27.2%. In addition, the AC50 under setting [1] was 0.291 µM [falling, full curve, poor fit]. In addition, under setting [2], the AC50 was 11.6 µM [falling, partial curve].

As for `Cc1cc(=O)[nH]c(SCCCOc2ccc3c(c2)CCC3)n1`, the cell number change amounted to 88.3%. Further, the AC50 under setting [1] was 18.4 µM [rising, partial curve].

Turning to `CC(Sc1nc2ccccc2c(=O)n1CC1CCCO1)C(=O)N(C)Cc1ccccc1` (stereo not drawn), the cell number change is -39.6%. Besides, the AC50 under setting [1] was 29.1 µM [falling, single point].

In the case of `CC(=O)c1cccc(OCC(=O)c2cc(C)n(-c3cc(C)on3)c2C)c1`, the cell number change is -48.2%. Moreover, under setting [1], the AC50 was 32.6 µM [falling, single point]. Under setting [2], the AC50 is 29.1 µM [falling, single point].

In the case of `O=C(COC(=O)COc1ccccc1)NCc1ccco1`, the cell number change was 0.113%. Further, the AC50 under setting [2] is 11.6 µM [rising, partial curve].

Take `COc1cccc(CNC(=O)C2CCN(S(=O)(=O)c3ccc4c(c3)NC(=O)C(C)S4)CC2)c1` (stereo not drawn): the cell number change is -14.9%.

On to `CCOC(=O)Cc1csc(NC(=O)CSc2nnc(-c3ccc(F)cc3)o2)n1`, for which the cell number change is 2.12%.

Regarding `O=C(N/C(=C\c1ccccc1)C(=O)N1CCCCC1)c1ccco1`, the cell number change was -19%. For the same molecule, the AC50 under setting [2] was 29.1 µM [rising, single point].

`COc1ccccc1OCC(=O)Nc1cccc(C(=O)N2CCOCC2)c1`: the cell number change was 0.135%. Further, under setting [2], the AC50 is 0.259 µM [rising, full curve, poor fit].

Turning to `COc1ccc(CCNC(=O)C(=O)NCC2OCCN2S(=O)(=O)c2ccc(Br)cc2)cc1OC` (stereo not drawn), the cell number change is -24.8%. The AC50 under setting [1] was 0.0291 µM [falling, full curve, poor fit]. For the same molecule, the AC50 under setting [2] was 20.6 µM [falling, partial curve, poor fit].

Regarding `COc1ccc(OC)c(/C=N/NC(=O)Cc2nc3ccccc3[nH]2)c1`, the cell number change is 62.5%. Besides, the AC50 under setting [1] was 29.1 µM [rising, single point]. Besides, the AC50 under setting [2] was 5.8 µM [rising, partial curve].

Turning to `COC(=O)c1cc(OC)c(OC)cc1NC(=O)CN1C(=O)c2ccccc2C1=O`, the AC50 is 5.17 µM [rising, partial curve] under setting [1] and 29.1 µM [falling, partial curve] under setting [2].

On to `N#Cc1ccccc1NC(=S)NC(=O)c1cccnc1`, for which the cell number change is -17.1%. Further, the AC50 under setting [2] is 6.51 µM [falling, single point].

In the case of `COc1cccc(-c2nc(NCc3ccco3)c3ccccc3n2)c1O`, the cell number change was -15.4%. Besides, the AC50 under setting [2] was 29.1 µM [falling, single point].

As for `Cc1nc(NC(=O)CN(C)S(=O)(=O)c2ccc(Cl)cc2)sc1C`, the cell number change was 82.5%. Further, the AC50 under setting [1] is 29.1 µM [rising, single point]. For the same molecule, the AC50 under setting [2] was 29.1 µM [rising, partial curve].

In the case of `COc1ccccc1NC(=O)c1ccccc1-c1ccccc1C(=O)O`, the cell number change turned out to be 6.96%.

Consider `Cc1ccc(-n2c(O)c(/C=N/c3ncn[nH]3)c3ccccc3c2=O)cc1`, for which the cell number change is -22.7%.

For the molecule `CCOC(=O)C(=NC1CCS(=O)(=O)C1)NNc1cc(Cl)ccc1Cl` (stereo not drawn), the cell number change stood at 4.04%. Besides, the AC50 under setting [2] is 11.6 µM [rising, single point].

`Cc1ccc(N2CC(NC(=O)C(=O)c3c(C)[nH]c4ccccc34)CC2=O)cc1C` (stereo not drawn): the half-maximal activity concentration (AC50) runs as follows: under setting [1], 0.58 µM [rising, single point]; under setting [2], 0.517 µM [rising, partial curve, poor fit].

Regarding `Cc1ccc(S(=O)(=O)N2CCN(C(=O)COC(=O)CNC(=O)c3ccc(Cl)cc3Cl)CC2)cc1`, the cell number change was found to be 10.7%. Besides, the AC50 under setting [2] was 5.17 µM [falling, full curve].

As to `C=CCn1c(=N)c(C(=O)NCCCOC)cc2c(=O)n3cccc(C)c3nc21`, the cell number change came out at 30%. Also, the concentration at half-maximal activity (AC50) under setting [1] was 0.461 µM [rising, full curve, poor fit]. In addition, the AC50 under setting [2] is 0.103 µM [rising, full curve, poor fit].

For the molecule `O=C1CCCC2=C1C(c1ccccn1)Nc1ccc(C(=O)c3ccccc3)cc1N2` (stereo not drawn), the cell number change was -2.87%. For the same molecule, the AC50 under setting [2] was 6.51 µM [rising, single point].

On to `CCN(CC)C(=O)Sc1cccc2cccnc12`, for which the cell number change is -19.3%. In addition, the AC50 under setting [1] was 0.0231 µM [falling, full curve, poor fit].

On to `Cc1cc(C)n(-c2ccc(C(=O)OCC(=O)Nc3ccc(Cl)c(S(=O)(=O)N(C)C)c3)cc2)n1`, for which the cell number change is 11.4%. Further, under setting [1], the AC50 was 0.184 µM [rising, full curve, poor fit]. Besides, under setting [2], the AC50 was 6.51 µM [rising, single point].

With `CCN(CC)CCN(C(=O)c1cc2ccccc2cc1OC)c1nc2ccc(OC)cc2s1`, the cell number change was found to be 40.4%. For the same molecule, the half-maximal activity concentration (AC50) under setting [1] was 10.3 µM [rising, partial curve, poor fit]. In addition, the AC50 under setting [2] was 20.6 µM [rising, partial curve].

`CC(=O)c1cc2c(cc1NC(=O)CCc1c(C)nc3ncnn3c1C)OCO2`: the cell number change is -11.3%. Moreover, under setting [2], the AC50 is 0.0651 µM [falling, full curve, poor fit].

One may read the AC50 as the concentration giving half of the maximal activity seen. Read a high AC50 as activity only at high concentration.
